Measurements taken from publication PMC8287961.

The chains behind the UniProt entries cited, without tags or fusion partners.
UniProt P83917: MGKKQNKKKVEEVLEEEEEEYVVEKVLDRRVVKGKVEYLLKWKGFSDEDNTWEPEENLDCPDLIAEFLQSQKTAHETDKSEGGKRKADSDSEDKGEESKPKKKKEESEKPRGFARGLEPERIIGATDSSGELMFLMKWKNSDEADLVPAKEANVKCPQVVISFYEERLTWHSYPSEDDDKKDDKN

Columns and labels:
[1] = target: Heterochromatin binding protein HP1β (endogenous, mESCs and EpiLCs) (mouse (endogenous in E14 mESCs)), P83917; experiment: affinity purification with mass spectrometry; ChIP-MS: formaldehyde-crosslinked, MNase-digested chromatin of wt against HP1β−/− E14 mESCs (naive, 0 h) and EpiLCs (48 h ActivinA/FGF); anti-HP1β antibody (Abcam), protein A/G beads; washes with 140 mM and 500 mM NaCl, 1% Triton X-100; details: remark: other sources report otherwise
[2] = target: Heterochromatin binding protein HP1β (endogenous, mESCs and EpiLCs) (mouse (endogenous in E14 mESCs)) (UniProt P83917); experiment: as above

binding [1]	binding [2]	Binder
binds	–	KAP1 (endogenous, mESCs), Q62318 1-834 (protein) MAASAAATAAASAATAASAASGSPGSGEGSAGGEKRPAASSAAAASAAASSPAGGGGEAQELLEHCGVCRERLRPERDPRLLPCLHSACSACLGPATPAAANNSGDGGSAGDGAMVDCPVCKQQCYSKDIVENYFMRDSGSKASSDSQDANQCCTSCEDNAPATSYCVECSEPLCETCVEAHQRVKYTKDHTVRSTGPAKTRDGERTVYCNVHKHEPLVLFCESCDTLTCRDCQLNAHKDHQYQFLEDAVRNQRKLLASLVKRLGDKHATLQKNTKEVRSSIRQVSDVQKRVQVDVKMAILQIMKELNKRGRVLVNDAQKVTEGQQERLERQHWTMTKIQKHQEHILRFASWALESDNNTALLLSKKLIYFQLHRALKMIVDPVEPHGEMKFQWDLNAWTKSAEAFGKIVAERPGTNSTGPGPMAPPRAPGPLSKQGSGSSQPMEVQEGYGFGSDDPYSSAEPHVSGMKRSRSGEGEVSGLLRKVPRVSLERLDLDLTSDSQPPVFKVFPGSTTEDYNLIVIERGAAAAAAGQAGTVPPGAPGAPPLPGMAIVKEEETEAAIGAPPAAPEGPETKPVLMPLTEGPGAEGPRLASPSGSTSSGLEVVAPEVTSAPVSGPGILDDSATICRVCQKPGDLVMCNQCEFCFHLDCHLPALQDVPGEEWSCSLCHVLPDLKEEDGSLSLDGADSTGVVAKLSPANQRKCERVLLALFCHEPCRPLHQLATDSTFSMEQPGGTLDLTLIRARLQEKLSPPYSSPQEFAQDVGRMFKQFNKLTEDKADVQSIIGLQRFFETRMNDAFGDTKFSAVLVEPPPLNLPSAGLSSQELSGPGDGP
–	binds	SUV39H1 (endogenous, mESCs) (protein, UniProt O54864 1-412) MAENLKGCSVCCKSSWNQLQDLCRLAKLSCPALGVSKKNLYDFEVEYLCDYKKIREQEYYLVKWRGYPDSENTWEPRQNLKCIRVLKQFHKDLERELVRRHRRSKPPRHLDPNLANYLVQKAKQRRALQRWEQELNAKRSHLGRITVENEVDLDGPPRSFVYINEYRVGEGITLNQVAVGCECQDCLLAPTGGCCPGASLHKFAYNDQGQVRLKAGQPIYECNSRCCCGYDCPNRVVQKGIRYDLCIFRTNDGRGWGVRTLEKIRKNSFVMEYVGEIITSEEAERRGQIYDRQGATYLFDLDYVEDVYTVDAAYYGNISHFVNHSCDPNLQVYNVFIDNLDERLPRIAFFATRTIWAGEELTFDYNMQVDPVDMESTRMDSNFGLAGLPGSPKKRVRIECKCGTTACRKYLF

No constants are given. Whether binding was seen depends on the method and setting. In cells and extracts the contact can be indirect. Here binding means that the protein was enriched with, or labelled near, the bait; the list need not be complete.
